From article PMC8443252
No constants are given. Whether binding was seen depends on the method and setting. Binding seen in cells or lysates may run through a third protein. Some binding calls cover weakened binding; strength is not graded here. Tags and fused reporters may be left off the sequences shown.

Amino acid sequences for entries named in this document (tags omitted).
UniProt Q7JV23: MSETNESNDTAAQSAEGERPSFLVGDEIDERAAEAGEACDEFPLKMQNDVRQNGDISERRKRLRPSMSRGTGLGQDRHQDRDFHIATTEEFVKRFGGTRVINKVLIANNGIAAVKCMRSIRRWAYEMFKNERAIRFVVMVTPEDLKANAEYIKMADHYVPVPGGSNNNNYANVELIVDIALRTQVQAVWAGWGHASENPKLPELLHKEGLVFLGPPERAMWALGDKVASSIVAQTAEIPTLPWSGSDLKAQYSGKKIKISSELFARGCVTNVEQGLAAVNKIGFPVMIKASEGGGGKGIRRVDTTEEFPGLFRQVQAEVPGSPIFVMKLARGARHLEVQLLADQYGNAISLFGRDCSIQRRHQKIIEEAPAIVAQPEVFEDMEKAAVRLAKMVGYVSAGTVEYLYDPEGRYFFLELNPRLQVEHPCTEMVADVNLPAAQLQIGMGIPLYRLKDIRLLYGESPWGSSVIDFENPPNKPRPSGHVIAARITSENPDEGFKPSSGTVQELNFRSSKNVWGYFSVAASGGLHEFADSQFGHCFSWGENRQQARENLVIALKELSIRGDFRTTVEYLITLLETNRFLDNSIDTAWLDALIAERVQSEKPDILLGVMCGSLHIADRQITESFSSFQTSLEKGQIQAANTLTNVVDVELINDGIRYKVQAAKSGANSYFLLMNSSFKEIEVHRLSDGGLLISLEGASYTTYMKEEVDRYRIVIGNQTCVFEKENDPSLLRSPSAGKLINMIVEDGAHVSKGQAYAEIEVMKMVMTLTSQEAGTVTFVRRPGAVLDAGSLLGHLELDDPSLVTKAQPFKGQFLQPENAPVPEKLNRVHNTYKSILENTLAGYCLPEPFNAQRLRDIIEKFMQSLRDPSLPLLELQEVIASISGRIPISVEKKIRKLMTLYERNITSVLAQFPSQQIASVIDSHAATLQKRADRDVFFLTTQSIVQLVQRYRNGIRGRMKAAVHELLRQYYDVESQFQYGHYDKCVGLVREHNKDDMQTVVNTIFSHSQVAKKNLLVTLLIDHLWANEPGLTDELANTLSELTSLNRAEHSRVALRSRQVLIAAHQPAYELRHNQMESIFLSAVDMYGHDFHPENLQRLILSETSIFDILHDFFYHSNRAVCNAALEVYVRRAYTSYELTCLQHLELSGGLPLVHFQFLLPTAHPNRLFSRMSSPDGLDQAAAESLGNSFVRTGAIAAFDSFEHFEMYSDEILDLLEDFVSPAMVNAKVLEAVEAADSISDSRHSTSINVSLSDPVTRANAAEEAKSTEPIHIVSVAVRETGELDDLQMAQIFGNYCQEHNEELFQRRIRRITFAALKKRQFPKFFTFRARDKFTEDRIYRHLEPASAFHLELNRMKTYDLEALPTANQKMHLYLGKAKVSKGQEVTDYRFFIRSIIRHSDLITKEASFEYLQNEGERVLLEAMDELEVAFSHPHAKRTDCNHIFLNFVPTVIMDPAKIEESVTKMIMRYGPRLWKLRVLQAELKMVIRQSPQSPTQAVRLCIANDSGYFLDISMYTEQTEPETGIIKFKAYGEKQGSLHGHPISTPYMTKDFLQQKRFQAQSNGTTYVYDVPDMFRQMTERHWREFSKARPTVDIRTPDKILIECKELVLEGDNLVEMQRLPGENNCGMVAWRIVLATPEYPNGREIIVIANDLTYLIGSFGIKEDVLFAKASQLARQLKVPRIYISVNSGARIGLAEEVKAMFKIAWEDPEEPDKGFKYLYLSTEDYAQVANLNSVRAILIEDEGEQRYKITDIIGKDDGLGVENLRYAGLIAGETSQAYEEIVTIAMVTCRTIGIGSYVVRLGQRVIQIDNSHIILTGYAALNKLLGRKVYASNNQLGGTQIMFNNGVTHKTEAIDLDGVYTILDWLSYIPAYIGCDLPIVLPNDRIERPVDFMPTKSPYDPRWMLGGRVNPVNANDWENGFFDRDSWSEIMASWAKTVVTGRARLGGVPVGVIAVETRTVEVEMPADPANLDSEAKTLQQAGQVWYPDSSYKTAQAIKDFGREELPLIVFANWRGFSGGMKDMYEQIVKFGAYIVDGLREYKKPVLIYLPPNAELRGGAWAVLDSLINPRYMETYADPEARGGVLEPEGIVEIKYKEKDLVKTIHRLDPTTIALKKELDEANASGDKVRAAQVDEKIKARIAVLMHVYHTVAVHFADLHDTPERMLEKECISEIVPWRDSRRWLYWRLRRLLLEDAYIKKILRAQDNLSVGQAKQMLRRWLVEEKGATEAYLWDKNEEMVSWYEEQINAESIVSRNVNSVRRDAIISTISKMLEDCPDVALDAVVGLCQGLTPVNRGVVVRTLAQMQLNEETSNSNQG

Target: acetyl-CoA carboxylase (D. melanogaster (endogenous in flies)) (UniProt Q7JV23)
Assay: co-IP; ACC immunoprecipitated with rabbit anti-ACC from abdomens of 5-day-old adult males; 10 mM Tris pH 7.4, 100 mM NaCl, 0.02% Triton X-100; normal rabbit IgG as control; flies: w1118 control, dSTING deletion, rescue (dSTING deletion; GFP-dSTING), cg-GAL4/GFP-dSTING

binding: binds
B1: GFP-tagged Drosophila STING (protein, UniProt A0A0B4LFY9 1-343)
chain: MAIASNVVEAGNAVRAEKGRKYFYFRKMIGDYIDTSIRIVATVFLADLLLRLYRCVVEYGSNGRYYLPEDRLWIILRRSCTYNNRSIYLIVGFLLVAFFRISVTGNYRNVMPTTLFLFQMPLYWIWSFTDMDQSTLSYSHWIRDSHGLDYAAGMASNYFHGYLKLSLPERKDDGLKHRLAMYEDKNNVTFGIKRLVILIPDEMFVNGVLESHLLDKAEPLETQFINRAGVYRPFKHDVYRMNKKVNGRTYYFAVEGATPMISFFDATYSNLSGTWQMQELKREIWIKFYKHLKELITTWPETRDLVELIIYNSHDSKGNLVDVGELLVAHMQNKTKTIDEISN
